According to patent publication US20050194561A1, “Anionic-sweetener-based ionic liquids and methods of use thereof” (University of South Alabama, priority 2004, published 2005):

Test system: {Rh}^+
Experiment: Anion competition equilibrium for {Rh}+ (trans-Rh(PPh3)2(CO)X) in CDCl3 by 19F and/or 31P NMR
[1] = Z=TFA, eq. 1 (X=Sac) or eq. 2 (X=Ace)

Row | Structure (SMILES) | K, equilibrium {Rh}X + [N(PPh3)2]Z = {Rh}Z + [N(PPh3)2]X [1] | K, equilibrium {Rh}X + [N(PPh3)2]Z = {Rh}Z + [N(PPh3)2]X (Z=3-FC6H4CO2, eq. 1) | K, equilibrium {Rh}X + [N(PPh3)2]Z = {Rh}Z + [N(PPh3)2]X (Z=CH3CO2, eq. 1)
1 | CC1=CC(=O)[N]([Rh](=[C]=O)([PH](c2ccccc2)(c2ccccc2)c2ccccc2)[PH](c2ccccc2)(c2ccccc2)c2ccccc2)S(=O)(=O)O1 [{Rh}Ace] | 1.1 | – | –
2 | O=[C]=[Rh]([N]1C(=O)c2ccccc2S1(=O)=O)([PH](c1ccccc1)(c1ccccc1)c1ccccc1)[PH](c1ccccc1)(c1ccccc1)c1ccccc1 [{Rh}Sac] | 0.091 | 31 | 99
